Results reported in patent US10071103B2, “Treatments for resistant acne” (VYOME BIOSCIENCES PVT. LTD., priority 2014, dated 2018).
In brackets after ≈: the same amount, converted by molar mass.

Tests used:
[1] = tested on: P. acnes clinical isolates; assay: MIC of P. acnes isolated from acne patients (clinical isolates); details: Cutibacterium acnes, clinical isolate susceptible to clindamycin and erythromycin;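 note: anaerobic 96-well plate assay at 37 °C over 72 h, with Alamar blue dye as read-out; MIC in µg/mL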
P. acnes CCARM 9010 = assay: MIC by micro broth dilution (Alamar blue), clindamycin-resistant/nonresponsive P. acnes; type: cell-based, Propionibacterium acnes; details: clindamycin-nonresponsive CCARM 9010
Protocol: (§1) The plates were incubated at 37° C. for 48 h under anaerobic condition for P. acnes and 37° C. for 24 h for S. aureus The plates were read under Bio-Rad plate reader at 595 nm for optical density to generate the dose-response curves. The MIC of the test compound was recorded by addition of Alamar blue dye.
P. acnes (MTCC 3297, MTCC 1951& CCARM 9010) are cultured in Brain Heart Infusion (BHI) Broth at 37° C. for 48-72 h under anaerobic condition. The test compounds/formulations are initially diluted with suitable solvent and further diluted with BHI broth to get the required concentrations. Samples (100 μl) of different concentrations (prepared by serial dilution) are added to 96-well plate. To the wells, 100 μl of P. acnes BHI broth culture is added [culture turbidity adjusted against 0.5 McFarland standard (approx 1.5×10^8), and further diluted 100-fold with sterile BHI broth]. In addition Growth Control and Sterility Control are created using 100 μl each of P. acnes BHI broth culture and plain BHI broth, respectively.
(§2) Plates are incubated at 37° C. for 48-72 hrs under anaerobic condition. The plate is read under Bio-Rad plate reader @ 595 nm for optical density to generate the dose-response curves. The MIC of the test compound is recorded by addition of Alamar blue dye.

P. acnes MTCC 1951 [2] = type: cell-based, Propionibacterium acnes
Protocol: 3 to 4 Petri plates containing 48 h P. acnes culture was suspended in sterile Phosphate buffer saline, PBS (pH 7.2) and turbidity was adjusted to optical density of 1 at 600 nm (10^9 cells/ml). 50 ml of this culture suspension was centrifuged at 4000 rpm for 40 min. The supernatant was discarded and pellet resuspended in 250 μl of sterile PBS. 50 μl of these cell suspensions (10^10 cells) was spread over the plates containing various concentrations of antibiotics (around MIC range). Plates were incubated at 37° C. for 48 h and the lowest concentration of the drug that allowed no growth was taken as its MPC. […] If growth was not observed in these plates at the end of the incubation period then the same concentration was confirmed to be the MPC for the said compound.

P. acnes MTCC 1951 [3] = assay: MIC by micro broth dilution (Alamar blue), clindamycin-susceptible P. acnes; type: cell-based, Propionibacterium acnes; details: Cutibacterium acnes, MTCC1951; Table 7; against P. acnes
Protocol: as §1
P. acnes (MTCC 3297, MTCC 1951& CCARM 9010) are cultured in Brain Heart Infusion (BHI) Broth at 37° C. for 48-72 h under anaerobic condition. The test compounds/formulations are initially diluted with suitable solvent and further diluted with BHI broth to get the required concentrations. Samples (100 μl) of different concentrations (prepared by serial dilution) are added to 96-well plate. To the wells, 100 μl of P. acnes BHI broth culture is added [culture turbidity adjusted against 0.5 McFarland standard (approx 1.5×10^8), and further diluted 100-fold with sterile BHI broth]. […]
as §2
BHI broth and BHI agar media were prepared as per the manufacturer's instruction and autoclaved at 121° C. for 15 minutes. […] Plate is visualized for bacterial inhibitions and MIC values of the tested samples are determined. […]

## CCC[C@@H]1C[C@@H](C(=O)N[C@@H]([C@H]2O[C@H](SC)[C@H](O)[C@@H](O)[C@H]2O)[C@H](C)Cl)N(C)C1 [Clindamycin]
[1]; P. acnes strain V2-9
  MIC: < 0.03 µg/mL
[1]; P. acnes strain V2-10
  MIC: < 0.03 µg/mL
[1]; P. acnes strain V3-9
  MIC: < 0.03 µg/mL
[1]; P. acnes strain V3-10
  MIC: < 0.03 µg/mL
[1]; P. acnes strain V4-6
  MIC: < 0.03 µg/mL
[1]; P. acnes strain V4-8
  MIC: < 0.03 µg/mL
[1]; P. acnes strain V4-13
  MIC: < 0.03 µg/mL
[1]; P. acnes strain V5-2
  MIC: < 0.03 µg/mL
[1]; P. acnes strain V5-5
  MIC: < 0.03 µg/mL
[1]; P. acnes strain V5-7
  MIC: < 0.03 µg/mL
[1]; P. acnes strain V6-5
  MIC: < 0.03 µg/mL
[1]; P. acnes strain V6-6
  MIC: < 0.03 µg/mL
[1]; P. acnes strain V6-7
  MIC: < 0.03 µg/mL
[1]; P. acnes strain V7-3
  MIC: < 0.03 µg/mL
[1]; P. acnes strain V7-4
  MIC: < 0.03 µg/mL
[1]; P. acnes strain V7-14
  MIC: < 0.03 µg/mL
[1]; P. acnes strain V9-6E
  MIC: < 0.13 µg/mL
[1]; P. acnes strain V12-2E
  MIC: < 0.13 µg/mL
[1]; P. acnes strain V13-3E
  MIC: < 0.13 µg/mL
[1]; P. acnes strain V14-2E
  MIC: < 0.13 µg/mL
[1]; P. acnes strain V15B-1E
  MIC: < 0.13 µg/mL
[1]; P. acnes strain V17-3E
  MIC: < 0.13 µg/mL
[1]; P. acnes strain V18-4E
  MIC: < 0.13 µg/mL
[1]; P. acnes strain V19-2E
  MIC: < 0.13 µg/mL
[1]; P. acnes strain V20-5E
  MIC: < 0.13 µg/mL
P. acnes CCARM 9010
  Activity / bacterial killing, dose response curve (in words): no effect
P. acnes MTCC 1951 [2]; P. acnes, 10^10 cells inoculum
  MPC: 0.13 µg/mL
P. acnes MTCC 1951 [2]; ratio against P. acnes
  MPC/MIC: 6.5
P. acnes MTCC 1951 [3]
  MIC: 0.02 µg/mL (≈ 0.0471 µM)
